This passage reports log2 fold change results from the supplement of paper PMC10849652.

Sequences of proteins named here, by UniProt entry; tags and fusion partners are left off. A change or cut given only in a name is not applied to a line headed by its entry.
UniProt Q9Y294, whole entry, looked up: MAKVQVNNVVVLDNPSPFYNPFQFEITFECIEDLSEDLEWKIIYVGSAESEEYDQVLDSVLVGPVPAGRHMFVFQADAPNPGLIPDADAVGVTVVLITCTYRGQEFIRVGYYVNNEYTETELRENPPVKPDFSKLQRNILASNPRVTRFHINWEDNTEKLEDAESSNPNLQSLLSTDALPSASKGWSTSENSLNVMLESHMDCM
UniProt Q8NHH9: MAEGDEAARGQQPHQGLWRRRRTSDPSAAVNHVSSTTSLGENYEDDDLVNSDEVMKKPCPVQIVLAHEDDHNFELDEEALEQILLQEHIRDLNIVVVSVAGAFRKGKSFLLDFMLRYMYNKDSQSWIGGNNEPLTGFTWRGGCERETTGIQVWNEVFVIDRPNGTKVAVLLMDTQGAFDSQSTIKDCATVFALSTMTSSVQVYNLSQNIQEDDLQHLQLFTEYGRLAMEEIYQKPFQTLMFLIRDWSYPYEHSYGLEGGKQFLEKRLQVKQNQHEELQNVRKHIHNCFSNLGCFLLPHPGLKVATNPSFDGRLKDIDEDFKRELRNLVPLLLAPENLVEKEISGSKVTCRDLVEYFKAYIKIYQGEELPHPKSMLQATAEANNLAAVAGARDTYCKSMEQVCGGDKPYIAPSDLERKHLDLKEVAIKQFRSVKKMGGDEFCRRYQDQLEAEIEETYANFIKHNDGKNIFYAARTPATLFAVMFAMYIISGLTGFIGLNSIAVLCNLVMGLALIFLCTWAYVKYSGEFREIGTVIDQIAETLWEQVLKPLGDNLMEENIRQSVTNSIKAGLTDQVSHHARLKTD
UniProt Q9H1I8: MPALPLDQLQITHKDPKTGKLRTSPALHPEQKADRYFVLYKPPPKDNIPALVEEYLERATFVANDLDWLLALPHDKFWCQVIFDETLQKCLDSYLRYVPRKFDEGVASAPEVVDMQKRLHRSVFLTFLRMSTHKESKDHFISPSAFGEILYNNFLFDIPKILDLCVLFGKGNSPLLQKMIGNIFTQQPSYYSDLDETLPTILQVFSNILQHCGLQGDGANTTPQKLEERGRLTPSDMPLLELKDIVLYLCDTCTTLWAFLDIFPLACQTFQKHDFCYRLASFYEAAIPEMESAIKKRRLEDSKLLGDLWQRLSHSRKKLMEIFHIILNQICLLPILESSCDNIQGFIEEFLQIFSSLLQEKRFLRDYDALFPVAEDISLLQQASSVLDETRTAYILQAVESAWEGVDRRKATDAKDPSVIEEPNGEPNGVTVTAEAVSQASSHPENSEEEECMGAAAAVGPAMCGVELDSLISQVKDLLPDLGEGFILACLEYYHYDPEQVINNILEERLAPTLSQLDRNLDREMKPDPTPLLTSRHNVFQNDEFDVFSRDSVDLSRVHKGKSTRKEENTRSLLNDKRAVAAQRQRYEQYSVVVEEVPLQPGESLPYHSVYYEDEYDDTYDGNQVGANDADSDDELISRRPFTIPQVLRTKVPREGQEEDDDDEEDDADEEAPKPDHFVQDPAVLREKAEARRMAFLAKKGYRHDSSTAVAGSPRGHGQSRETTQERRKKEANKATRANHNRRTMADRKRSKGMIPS
UniProt P08243: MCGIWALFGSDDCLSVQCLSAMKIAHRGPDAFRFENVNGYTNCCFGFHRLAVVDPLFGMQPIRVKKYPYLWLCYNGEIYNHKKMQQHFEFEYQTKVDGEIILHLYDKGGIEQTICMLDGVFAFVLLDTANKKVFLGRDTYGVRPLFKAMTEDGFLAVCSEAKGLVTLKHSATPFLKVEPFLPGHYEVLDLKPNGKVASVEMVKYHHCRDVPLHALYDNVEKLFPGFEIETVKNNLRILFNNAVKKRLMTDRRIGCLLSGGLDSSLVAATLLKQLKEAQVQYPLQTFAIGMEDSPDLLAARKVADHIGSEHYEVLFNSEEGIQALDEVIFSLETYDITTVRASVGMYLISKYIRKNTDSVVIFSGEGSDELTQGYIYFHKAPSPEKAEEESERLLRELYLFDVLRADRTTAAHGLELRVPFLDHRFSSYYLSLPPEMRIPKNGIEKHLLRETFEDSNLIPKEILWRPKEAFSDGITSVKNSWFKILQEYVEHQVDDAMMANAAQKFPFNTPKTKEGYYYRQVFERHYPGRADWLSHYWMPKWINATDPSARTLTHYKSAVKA
UniProt O43861: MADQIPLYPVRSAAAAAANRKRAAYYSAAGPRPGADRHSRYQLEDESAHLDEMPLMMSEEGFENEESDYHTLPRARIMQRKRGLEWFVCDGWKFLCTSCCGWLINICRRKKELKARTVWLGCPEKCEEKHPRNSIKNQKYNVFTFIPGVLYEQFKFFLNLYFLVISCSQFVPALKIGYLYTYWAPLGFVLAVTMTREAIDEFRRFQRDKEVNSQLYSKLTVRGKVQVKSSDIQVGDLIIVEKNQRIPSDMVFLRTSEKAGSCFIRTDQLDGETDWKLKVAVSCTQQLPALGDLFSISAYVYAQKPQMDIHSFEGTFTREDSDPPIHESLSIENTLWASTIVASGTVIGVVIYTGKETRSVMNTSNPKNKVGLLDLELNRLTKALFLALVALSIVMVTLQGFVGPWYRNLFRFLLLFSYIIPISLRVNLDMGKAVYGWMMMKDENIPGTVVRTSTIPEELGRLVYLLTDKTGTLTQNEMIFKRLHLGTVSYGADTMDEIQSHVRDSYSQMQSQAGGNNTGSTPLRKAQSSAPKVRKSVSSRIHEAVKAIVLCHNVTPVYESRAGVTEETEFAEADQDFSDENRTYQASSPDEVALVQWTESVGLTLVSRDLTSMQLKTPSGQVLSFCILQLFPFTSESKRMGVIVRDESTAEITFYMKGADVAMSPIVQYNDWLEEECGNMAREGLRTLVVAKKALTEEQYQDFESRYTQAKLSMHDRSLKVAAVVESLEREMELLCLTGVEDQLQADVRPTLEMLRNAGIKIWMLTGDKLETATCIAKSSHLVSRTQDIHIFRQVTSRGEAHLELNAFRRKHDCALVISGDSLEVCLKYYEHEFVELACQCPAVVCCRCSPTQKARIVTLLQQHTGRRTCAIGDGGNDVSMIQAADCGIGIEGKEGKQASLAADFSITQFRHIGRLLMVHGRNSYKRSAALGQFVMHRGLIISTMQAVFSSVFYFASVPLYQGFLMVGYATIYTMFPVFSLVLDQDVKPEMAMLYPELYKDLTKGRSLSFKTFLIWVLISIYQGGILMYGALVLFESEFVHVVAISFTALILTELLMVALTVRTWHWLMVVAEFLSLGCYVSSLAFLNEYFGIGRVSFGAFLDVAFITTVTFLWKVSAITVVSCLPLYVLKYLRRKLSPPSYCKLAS
UniProt P00966: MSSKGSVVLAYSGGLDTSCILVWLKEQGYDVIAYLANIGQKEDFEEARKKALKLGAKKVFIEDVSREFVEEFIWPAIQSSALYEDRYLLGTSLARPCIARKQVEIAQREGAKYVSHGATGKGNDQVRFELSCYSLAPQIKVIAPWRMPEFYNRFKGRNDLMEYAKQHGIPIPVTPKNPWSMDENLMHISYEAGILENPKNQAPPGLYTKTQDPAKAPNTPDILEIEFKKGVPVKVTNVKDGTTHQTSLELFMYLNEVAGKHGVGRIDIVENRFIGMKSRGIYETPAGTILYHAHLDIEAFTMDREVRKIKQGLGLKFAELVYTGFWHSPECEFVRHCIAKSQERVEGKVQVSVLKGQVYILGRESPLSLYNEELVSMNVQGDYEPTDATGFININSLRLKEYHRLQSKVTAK
UniProt P30049: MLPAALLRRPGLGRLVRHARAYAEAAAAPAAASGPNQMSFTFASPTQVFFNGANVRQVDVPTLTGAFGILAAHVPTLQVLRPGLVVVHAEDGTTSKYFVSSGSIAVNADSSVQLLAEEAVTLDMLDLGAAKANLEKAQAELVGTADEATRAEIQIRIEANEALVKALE
UniProt Q9UII2: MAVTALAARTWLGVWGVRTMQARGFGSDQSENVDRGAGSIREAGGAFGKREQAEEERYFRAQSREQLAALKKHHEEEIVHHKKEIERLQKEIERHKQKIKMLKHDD
UniProt P56378: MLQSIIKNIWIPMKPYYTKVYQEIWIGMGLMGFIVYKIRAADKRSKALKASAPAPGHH
UniProt P24539: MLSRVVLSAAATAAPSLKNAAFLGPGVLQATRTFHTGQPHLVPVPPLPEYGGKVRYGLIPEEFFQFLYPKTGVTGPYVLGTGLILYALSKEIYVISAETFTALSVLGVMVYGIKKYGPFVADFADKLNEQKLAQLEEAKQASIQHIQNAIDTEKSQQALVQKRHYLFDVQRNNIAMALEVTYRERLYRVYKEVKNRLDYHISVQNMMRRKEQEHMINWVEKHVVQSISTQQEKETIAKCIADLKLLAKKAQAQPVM
UniProt Q9Y679: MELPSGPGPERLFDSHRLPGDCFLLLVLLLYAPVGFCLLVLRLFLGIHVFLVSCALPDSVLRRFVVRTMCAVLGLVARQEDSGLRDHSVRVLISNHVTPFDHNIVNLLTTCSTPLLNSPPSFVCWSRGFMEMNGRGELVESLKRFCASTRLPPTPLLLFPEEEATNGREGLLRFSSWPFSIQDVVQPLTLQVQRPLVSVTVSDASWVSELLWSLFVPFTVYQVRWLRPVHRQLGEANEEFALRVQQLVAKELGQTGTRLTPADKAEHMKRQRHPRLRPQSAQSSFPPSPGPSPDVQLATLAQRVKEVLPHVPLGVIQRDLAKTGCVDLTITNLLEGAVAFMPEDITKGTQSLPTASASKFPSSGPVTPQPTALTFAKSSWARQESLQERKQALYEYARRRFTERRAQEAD
UniProt O00244: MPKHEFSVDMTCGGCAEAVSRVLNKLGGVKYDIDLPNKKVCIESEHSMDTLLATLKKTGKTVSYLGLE
UniProt Q9H7F0: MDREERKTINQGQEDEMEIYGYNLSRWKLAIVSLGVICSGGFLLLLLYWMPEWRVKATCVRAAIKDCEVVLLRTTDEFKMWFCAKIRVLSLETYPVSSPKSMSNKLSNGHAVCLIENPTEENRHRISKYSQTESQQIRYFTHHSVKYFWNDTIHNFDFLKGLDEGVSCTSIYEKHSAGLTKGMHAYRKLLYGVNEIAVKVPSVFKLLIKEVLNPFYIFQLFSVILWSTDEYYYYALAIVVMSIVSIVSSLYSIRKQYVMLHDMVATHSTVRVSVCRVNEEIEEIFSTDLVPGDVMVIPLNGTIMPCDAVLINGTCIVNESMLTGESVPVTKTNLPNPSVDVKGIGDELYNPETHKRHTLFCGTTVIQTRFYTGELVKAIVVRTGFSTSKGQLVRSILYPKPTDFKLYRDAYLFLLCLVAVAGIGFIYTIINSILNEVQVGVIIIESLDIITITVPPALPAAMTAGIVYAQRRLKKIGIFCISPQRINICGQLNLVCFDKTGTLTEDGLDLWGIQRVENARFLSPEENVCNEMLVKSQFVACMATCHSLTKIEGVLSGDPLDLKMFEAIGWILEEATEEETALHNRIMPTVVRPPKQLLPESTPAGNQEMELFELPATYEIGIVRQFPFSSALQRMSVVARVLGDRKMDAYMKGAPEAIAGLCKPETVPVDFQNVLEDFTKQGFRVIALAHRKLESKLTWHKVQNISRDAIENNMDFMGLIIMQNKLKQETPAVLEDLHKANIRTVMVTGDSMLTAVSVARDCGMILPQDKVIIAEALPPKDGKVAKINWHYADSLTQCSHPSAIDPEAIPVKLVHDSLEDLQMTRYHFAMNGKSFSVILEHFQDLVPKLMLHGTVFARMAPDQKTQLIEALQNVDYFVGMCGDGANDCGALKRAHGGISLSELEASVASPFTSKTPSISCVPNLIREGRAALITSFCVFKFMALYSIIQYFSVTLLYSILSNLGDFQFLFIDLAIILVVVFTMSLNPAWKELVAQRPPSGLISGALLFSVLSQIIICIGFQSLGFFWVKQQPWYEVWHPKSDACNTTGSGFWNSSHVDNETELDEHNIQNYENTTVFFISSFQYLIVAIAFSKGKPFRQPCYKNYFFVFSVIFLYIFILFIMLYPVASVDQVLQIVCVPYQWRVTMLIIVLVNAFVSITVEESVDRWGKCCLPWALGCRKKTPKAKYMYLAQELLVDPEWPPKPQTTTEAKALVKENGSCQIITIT
UniProt Q16864, whole entry, looked up: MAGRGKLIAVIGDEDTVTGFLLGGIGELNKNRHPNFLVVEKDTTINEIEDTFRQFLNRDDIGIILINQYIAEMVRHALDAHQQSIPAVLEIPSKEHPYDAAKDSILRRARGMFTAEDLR
UniProt P36543, whole entry, looked up: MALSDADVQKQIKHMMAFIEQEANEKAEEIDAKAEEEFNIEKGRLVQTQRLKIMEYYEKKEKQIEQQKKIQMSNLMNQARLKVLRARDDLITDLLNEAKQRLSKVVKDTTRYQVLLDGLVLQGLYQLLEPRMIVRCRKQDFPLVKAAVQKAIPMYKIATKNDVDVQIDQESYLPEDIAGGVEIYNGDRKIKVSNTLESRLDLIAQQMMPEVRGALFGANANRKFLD
UniProt P18846: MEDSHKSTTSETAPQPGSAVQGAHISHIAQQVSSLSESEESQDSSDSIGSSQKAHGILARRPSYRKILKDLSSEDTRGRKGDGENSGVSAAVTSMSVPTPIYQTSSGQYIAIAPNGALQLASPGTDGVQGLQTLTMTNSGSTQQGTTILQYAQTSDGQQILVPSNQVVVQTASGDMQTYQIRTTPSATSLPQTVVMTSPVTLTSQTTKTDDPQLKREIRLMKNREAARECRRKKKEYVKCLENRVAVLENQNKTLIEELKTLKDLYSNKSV

The other results are listed elsewhere or left out.

Compound in this experiment: Cc1cn(-c2cc(NC(=O)c3ccc(C)c(Nc4nccc(-c5cccnc5)n4)c3)cc(C(F)(F)F)c2)cn1 [nilotinib]
Put plainly: log2 fold change, soluble protein after heating vs DMSO (PISA); higher = thermal stabilisation; K562 lysate, 10 uM; active = over 0.2 and 3.5 SD of the protein, either way, in both replicates (recomputed). In a few lines: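 Log-two fold change in thermal stability relative to solvent controls is reported from duplicates. For each sample, crude K562 extract from dounce-homogenised pellets in PBS pH 7.4 with 1 mM MgCl2, at 1 mg/mL protein, was treated with 10 μM compound for 30 min. Aliquots heated for 3 min across 48°C-58°C were pooled, brought to 0.5% NP-40 at 4°C and cleared at 21,000xg for 90 min. The supernatant was quantified by TMTpro 16plex LC-MS/MS with channel sums equalised.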
Consider ASF1A (UniProt Q9Y294), for which the log2 fold change was inactive: -0.006.

Take ATP2B1 isoform 1 (UniProt P20020): the log2 fold change was inactive: -0.014.

As to ASF1B (UniProt Q9NVP2), the log2 fold change was inactive: -0.021.

As to ATP2A3 isoform 2 (UniProt Q93084), the log2 fold change is inactive: -0.078.

ATL2 (UniProt Q8NHH9): the log2 fold change was inactive: 0.04.

Take ASCC2 (UniProt Q9H1I8): the log2 fold change was inactive: -0.005.

In the case of ASNS (UniProt P08243), the log2 fold change is inactive: -0.004.

On to ATP9B (UniProt O43861), for which the log2 fold change is inactive: 0.05.

For the target ASS1 (UniProt P00966), the log2 fold change was inactive: -0.027.

Consider ATP5F1D (UniProt P30049), for which the log2 fold change is inactive: 0.025.

In the case of ATG4B (UniProt Q9Y4P1), the log2 fold change was inactive: 0.045.

With ATG2A isoform 3 (UniProt Q2TAZ0), the log2 fold change is inactive: 0.088.

Regarding ATP5IF1 (UniProt Q9UII2), the log2 fold change was inactive: -0.008.

For ATP6V1B1 (UniProt P15313), the log2 fold change was inactive: -0.024.

Turning to ATP6V1A (UniProt P38606), the log2 fold change is inactive: 0.007.

Take ATE1 isoform 2 (UniProt O95260): the log2 fold change was inactive: -0.099.

As to ATP5MF-PTCD1 (UniProt G3V325), the log2 fold change was inactive: 0.03.

Turning to ATP5MPL (UniProt P56378), the log2 fold change was inactive: 0.038.

With ATP5PB (UniProt P24539), the log2 fold change was inactive: 0.004.

Turning to AUP1 (UniProt Q9Y679), the log2 fold change was inactive: -0.007.

Consider ATXN10 (UniProt Q9UBB4), for which the log2 fold change was inactive: -0.001.

ASH2L (UniProt Q9UBL3): the log2 fold change was inactive: 0.009.

For the target ATOX1 (UniProt O00244), the log2 fold change was inactive: 0.141.

For ATP13A3 (UniProt Q9H7F0), the log2 fold change was inactive: 0.01.

For ATP6V1F isoform 2 (UniProt Q16864), the log2 fold change is inactive: 0.016.

As to ATP6V1E1 (UniProt P36543), the log2 fold change was inactive: 0.053.

ASNA1 (UniProt O43681): the log2 fold change was inactive: -0.029.

ATP11B (UniProt Q9Y2G3): the log2 fold change is inactive: 0.043.

For ATR (UniProt Q13535), the log2 fold change is inactive: -0.075.

Turning to ATF1 (UniProt P18846), the log2 fold change was inactive: -0.024.

As to ATP23 (UniProt Q9Y6H3), the log2 fold change is inactive: -0.019.

Regarding ATP6V0A2 (UniProt Q9Y487), the log2 fold change was inactive: 0.034.

In the case of ASB6 (UniProt Q9NWX5), the log2 fold change was inactive: -0.024.
